{"source": "patent US20080299086A1", "about": "“Cultured muscle cells with high metabolic activity and method for production of the cultured muscle cells” (TOHOKU UNIVERSITY, priority 2006, published 2008)", "system": "recombinant GLUT4 (myc-GLUT4-ECFP) in C2C12 myotube cells", "assay": "Measurement of GLUT4 membrane-translocation activity by anti-myc antibody uptake, western blot analysis", "type": "cell-based, mouse", "conditions": "insulin stimulation; FIG. 14B", "method": "The C2C12 myotube cells expressing a recombinant GLUT4, prepared according to Preparation Example 3, were stimulated by insulin with a final concentration of 100 nM for 60 minutes. After 30 minutes from the start of insulin stimulation, an anti-myc-monoclonal antibody with a final concentration of 4 μg/ml was supplemented in a culture medium. After insulin stimulation, the cells were washed 5 times with PBS (−) to remove anti-myc antibodies that were present on the cell membrane, and subsequently, a cell extract was prepared using Laemmli's buffer. The cell extract was used for 12.5% SDS-PAGE, and western blot analysis using an anti-mice-IgG antibody bound to horseradish peroxidase was carried out. Moreover, detection was carried out using a west super femto detection kit (Pierce Biotechnology Inc.).", "note": "At least one structure is not confirmed: it was looked up by name or label, or the drawing left a doubt."}
{"smiles": "COC[C@H]1OC(=O)c2coc3c2[C@@]1(C)C1=C(C3=O)[C@@H]2CCC(=O)[C@@]2(C)C[C@H]1OC(C)=O", "note": "[Wortmannin]", "values": [{"measurement": "effect on insulin-stimulated anti-myc antibody incorporation", "value": "inhibited"}]}
